# Data reported in patent US7098307B2, “Neo-tryptophan” (Mayo Foundation for Medical Education and Research, priority 1998, dated 2006).
# Sequences of proteins named here, by UniProt entry; tags and fusion partners are left off.
# UniProt P20789, whole entry: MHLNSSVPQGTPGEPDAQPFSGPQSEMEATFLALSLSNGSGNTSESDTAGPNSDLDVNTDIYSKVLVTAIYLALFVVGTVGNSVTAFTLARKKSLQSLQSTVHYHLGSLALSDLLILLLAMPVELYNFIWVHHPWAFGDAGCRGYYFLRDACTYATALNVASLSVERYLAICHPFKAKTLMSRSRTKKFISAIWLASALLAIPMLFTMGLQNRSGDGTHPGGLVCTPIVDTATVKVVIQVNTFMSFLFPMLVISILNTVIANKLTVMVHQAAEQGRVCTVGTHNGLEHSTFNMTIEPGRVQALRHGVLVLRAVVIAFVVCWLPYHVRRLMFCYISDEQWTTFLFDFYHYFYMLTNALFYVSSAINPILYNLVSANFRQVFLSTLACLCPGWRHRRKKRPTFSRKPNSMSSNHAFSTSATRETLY
# Molecular target: T1, rat NTR1 (Rattus norvegicus, UniProt P20789)
# T1 construct: expressed in transfected cells; host or cells: CHO-K1
# Experiment: Competition binding with [3H]NT, membranes of CHO-K1 cells transfected with rat NTR1
# Details: read-out: Kd rNTR (Table VII)
# Procedure: CHO-K1 cells were stably transfected with nucleic acid encoding either the human NTR1 or the rat NTR1, and cultured in 150 mm petri plates with 35 mL of Dulbecco-modified Eagle's medium containing 100 μM minimal essential medium nonessential amino acids (GIBCO) supplemented with 5% (v/v) FetalClone II bovine serum product (Hyclone Labs, Logan, Utah). CHO cells (subculture 9–19) were harvested at confluency. Briefly, the medium from each plate was removed by aspiration, and the cells washed with 6 mL of 50 mM Tris-HCl (pH 7.4) and resuspended in 5–10 mL of Tris-HCl by scraping the cells with a rubber spatula. The resuspended cells were placed into a centrifuge tube and collected by centrifugation at 300× g for five minutes at 4° C. in a GPR centrifuge (Beckman Instruments, Fullerton, Calif.). The cellular pellet (in 50 mM Tris-HCl, 1 mM EDTA, pH 7.4) was stored at […] until radioligand binding was performed.
# The supernatant was decanted and discarded, and the cellular pellet was resuspended in 2 mL of Tris-HCl, 1 mM EDTA (pH 7.4) followed by homogenization with a Brinkmann Polytron at setting 6 for ten seconds. Centrifugation was repeated as above and the supernatant was decanted and discarded. The resulting final cellular pellet was resuspended in 50 mM Tris-HCl, lmM EDTA, 0.1% bovine serum albumin, and 0.2 mM bacitracin.
# Incubation was at 20° C. for 30 minutes. […]
row,Kd,SMILES
1,> 100 µM,"O=C(CCCN1CCC(O)(c2ccc(Cl)cc2)CC1)c1ccc(F)cc1 [Haloperidol, reference compound]"
2,> 100 µM,"CN1CCN(C2=Nc3cc(Cl)ccc3Nc3ccccc32)CC1 [Clozapine, reference compound]"
